These are yes or no findings as the source states them, for the method shown. Binding seen in cells or lysates may run through a third protein. A yes stands for co-enrichment or nearness to the bait. Other partners may have been found.
T1: Cdc3-mCherry (C. neoformans) (UniProt J9VUF2)
T1 sequence: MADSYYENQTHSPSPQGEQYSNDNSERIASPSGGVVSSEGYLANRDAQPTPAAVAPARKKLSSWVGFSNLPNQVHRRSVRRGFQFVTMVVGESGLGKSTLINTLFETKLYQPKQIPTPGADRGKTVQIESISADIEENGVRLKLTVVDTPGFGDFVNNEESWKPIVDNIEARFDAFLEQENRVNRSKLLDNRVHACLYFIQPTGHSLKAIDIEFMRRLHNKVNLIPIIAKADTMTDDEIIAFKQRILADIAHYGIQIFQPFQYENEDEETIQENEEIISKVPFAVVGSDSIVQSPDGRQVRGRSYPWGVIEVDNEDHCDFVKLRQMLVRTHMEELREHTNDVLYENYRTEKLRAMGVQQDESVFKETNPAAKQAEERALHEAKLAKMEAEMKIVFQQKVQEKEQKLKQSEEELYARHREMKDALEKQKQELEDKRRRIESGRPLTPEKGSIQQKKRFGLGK

B1: Proteasome inhibitor PI31 subunit (protein, UniProt J9VDS2 1-419)
chain: MSDPLNAASLLGLLPTLLPQETTSPLPLSTDAIAALVHTIHTALQFRLVSPAPQTADDSSKLEQLGSGGDNDDAMSEVTAVEQEDNSQPPVGRLAEGWNSRGEDSYSFQYRHDQSAMNFRVRVGKMGNRAQIDAMAEDGEPHNLSIVISELVDSELFPIPSSATASSASNQGFPDASATAVGFKSINDVKAFVERYSRDIISRLLPGLSISGYNQASGSDPRAPPPAGAPQRSEPSPARPSVPRTGDPLLDNIININPSGRNPASLGHRDLDPLASLRPPGSFNPTRDGGGMLMDFNHPIFDSRRGRGLGDPDLDGPGGSVQPPGSRWDPVGPSPDGVSGGVMFPGVGGSPLGGVGRGDRDRWGDEMPPPGEFGPDLGRFGGGSGIGGPLGGGRGGGRFGGGGGGGLGGGGGFGGNMYM
B2: DLH domain-containing protein (protein, UniProt J9VSC3 1-322)
chain: MQARARLTSTLPLRSRLVSTSYERSGRNLSTFTTSSRTSSLVKFFIVNYNNTRSFTNITGKMSKNTECCPPQSNSNPSKPNVPHPTSDPIGYKYKGEFKSVANYDKVYVTGPESAKHALVVIYDIFGFWDTTIKGSDTLVSHLASTFPTKVLMPDVFKGKPFPADKDGDKETLQKFFATTAKLDERLPEVLDFAKELQKSYEKVSILGYCWGGKLTLLSLVEGTPFNAGAVAHPAMIAPEDGEKLSVPLGFYPSHDEPKDVIEKIVNDFKSKPFGDKCGYHLYDTVHHGWAAARANLNDPENVKQFEDVYKRLSEWFASVKA
B3: DUF953 domain-containing protein (protein, UniProt J9VLD8 1-119)
chain: MPLQTAPYPHVFNALNGPTAPAVSYIVFYSNIVDGQMWCPDCRAVENVVKETFDTPDKPNAAIFWVGNRQEWRTPNNQARTEWNVNSVPTILRLENGKETGRLVEDEILDKARLQAFIK
B4: Signal recognition particle subunit SRP72 (protein, UniProt J9VGD8 1-313)
chain: MAPPAKPTSTPKRKPFSPKPPRPAEERLPKLYRALTDQVDDGYFENAIKTCKKILALDASSQTAFQTLLFLHLQTDDYTSALSLLDHPSNEQSLDFERAYCLYRLHREKEALEVLKGLSEKGRKTDHLEAQILYRLGEYSQAQEIYEGMLADCDVSSPEHADIVTNLSATTAHLDFDTHGYHSHLSTTISSTSQTPMNTADLETIVPSLPTGWSSGGLAATVEKKTATVKAPEEKNERSRPRHKLPKGVVAGKEFTEDPERWIPFRQRLSYITAQSKKKGAKESMGTGFTQGSTGGHSAGSGGGGKSKKGKRK
B5: Coronin (protein, UniProt J9VJD9 1-695)
chain: MSRFVRPSKYRHVYGSKSKVNYENVKISGSAWDTDLVAAGGKYLSVNWQASGGGAFAILPLFSPTSPPQPAGFPTKLPDIVPLARGHTAPVLDTAWNPFDDNIVASAGEDGKIFIWKVEDSAFEGWGEDQWEPEDFNPALKLSAGGRKVGQVIFHPTSSNLLTAASGDHLVRLWDISSSADEPKLVLKGHGDSIQSIAWNSVGTTLATTCRDKKLRLFDPRAGSDAVRITDGHAGVKGSRVVWLGDRDRIATTGFSRMSDRQVSLWDTSSLKNLDTQSIDSSAGVLMPFYAEGNDVLFLAGKGDGNIRYYEFEGDQLHFLNEYKTSDPQRGMTLLPRRALDTQEHEIARAYKLSGGCVEPLSFIVPRKSESFQSDIFPPANSVEPAQTAADWFTGKNVRPNVVDLETGGVSASKEAVPTLTSSAPAAAPAQASAPSSTPSPAPAPVKEEPKSAPVYTPSPPAAPTQAPAPAAADVPIAVKKEIDSVPEITAKGLEIEQPEEASEDEQEEDKGPVEKVQDSLKSLTVGKEEPEKESNGVVAPSNTLLIKKLSPSATLPTRGSSLSAGYDLYSAEETVVPARGKALIDSGLCIAVPEGTYGRVAPRSGLASKHSIDTGAGVIDADYRGPVKVLLFNYSDSDFTIQKGDRIAQLILEKIVMAPIVEVEDLDATARGSGGFGSTGGFGKAVKDVAGSLI
B6: DBR1 domain-containing protein (protein, UniProt J9VGM4 1-183)
chain: MSSNSPKRERLDVESPQDREARLGQLLQSISSNPNQSQESTPIKSLNPLPSRPHVVPESDVLSRVRAFLPQFQASNDALFAQARENPDSVDIEKGQSGQYISMDLGLGVFDAPENPKGDMGPIIATQPPESLTCQQEDGDEDADSDSDGDGDSTGSSSSESESEDETNGKVELNTENTQESKS
B7: RRM Nup35-type domain-containing protein (protein, UniProt J9VJ19 1-324)
chain: MSNDWWSQTPSRYTSTPIHPTLSRSQSVSQSTRTRFAGDELDPEDSRAADAVKFLPSFASSQAGRVALGTSPTGGMSMSVGSPQGERRSPQGRLSGSVHESNSPRHITRARSLAQNAALSSSTANGPAPMDEDMPPTASLRDSVTETRVATVVASNELPTPPSLLPTKSTTTLYIFGPPPNILSTLQPYLTQFGPIASYRPGPEGSNWYIVEYTTPMGAAYALRRHGEVLGGQWMIGFKVGIGGAMEGIGSAPGEGDAQGSSSQVPPPTAGTPIRVQHKEILRPKVVQPVVAKAAVKSGNDYAWDEPEGSGGWTGWVSERLFGR
B8: V-type H-transporting ATPase subunit E (protein, UniProt J9VH39 1-227)
chain: MSRSGALDDNEIQSEMNKMVAFISQEAREKAREIQVKADEEFAIEKAKIVRQESLAIDAQFEKKRKQAEVSWKISQSTAINNSRLRILQSRNDHLETLFDEANKRVMELSAGDRYKDALVNLILEVLLKLLSADITLSHRPKDTELVEKSAQEAQKRYKDIAGRESNISFDPSLSDDSPGGVIGTSMGGRIKVDNTLEERLRILEEKMLPELRHDLFGPNENRKFYT
B9: General negative regulator of transcription subunit (protein, UniProt J9VW66 1-692)
chain: MALRKLQAEIDRTLKSVATGVEVFEATFDKLNYATNTTQKDKLENDLKTQIKKLQRMRDQIKAWLGNGDIKDKTALLENRRLIETQMERFKALEKETKMKAFSKEGLIAQSKLDPAEKAKRDMIDWIGSTTDELSRQIEQTEAEVESLQMGKKKKQAGERLDELEELNERREWHIGRLEVVQRMLENGQLTVGDVEDIQEDVKYFLEANMEEDFDFDNGIYDELNLQDEEDFHDYLHEHPSATDEPEPEPEPIASAPVPKTPAKEKEDKKATPHRLSKSESRDKEEEIPPSPMVVKKTPSRKTTLDKDKKDKKDKEKEDKERKDLEREEKEREERSSSSQPTPSKPVPLPPIKYAAAAAAAVGGTVSASAPSQTSLSAPSENSRDETVASPDEIAAAPISSSLPPPPPGLSRSPSQAATPQVSSPGTPGLQSHAPSIGTGAADVATPSQAPGSAIPPPGYPLPPSSSSAESSRAAAQAQVAAEQAQAQAQAQAQALAQAQAQAQTQSQLSAAQIQAQLQAAQDVQGQAGVMGNLMQSFEVAKEISKRRSDDANELHAALEDSFANAPQQMDAEPPRYYHPQNPIKTPSYYPQSRLPILEDKSIYSRLELDQLFYIFYYMTGTYEQWLAARELKKQSWRFHKQYLTWFQRAHNPQAITSDYEQGGYYYFDWENSWCQRRKSDFRFEYRWLSDH
B10: RBR-type E3 ubiquitin transferase (protein, UniProt J9VWC9 1-523)
chain: MSSDGENEDLAYEDDYDDAFDADDAMDDSTSEPDDFDVLSPTIETAPSKKPYDVNYTVYDLKEIIGMQKKMIDEVAALLVIPASTAAALLRHFNWNTEKLQEVFWTEPDATLLAAGLSPPSSPSTSTQPLPGSQSGSFECPICFTDYEGKFAQQDTFAMGCGHRFCKTCWGEYLTGKIKEEGESGRIQCMESGCKRVVKGEMVKELAGDKTSDRYYNLLNAAFVSDSPNLRWCPHPDCPYIIGCTQAPQRMLNQLVPTVECKCGKDLCFGCGYAASHRPVICKIVRLWEKKCADDSETANWLQANTKECTKCQSTIEKNGGCNHMTCKKCKWEFCWVCMGPWSEHGTNWYQCNRFDEKSGIDARDVQAKSRASLERYLHYFNRWANHEHSAKLDTEFYAKTEKKMEQMQDAGNLSWIEVQFAKQAVDAVIRARITLKWTYCMAFYLKRNNQTELFEDNQRDLERAVENLSYLLEQNIGEPESIAKLRHDVTNQAAYVQKRHEIMMDDTLRGHLEHRWEFTVDV
B11: Protein-serine/threonine kinase (protein, UniProt J9VW37 1-446)
chain: MSKFRISSALWDKIHHFASFPQTGVSLQQMILFGQNPSQGTLLKASQFLSEELPIRLSHRVVELEGLPDGLSKMPSINTVKEWYAQSFDELVSFPRPRLKPELEDILRIPPAPTQPFPSATPNPSLDPLMREGPVGSGFVSERHIGTGGNGIGVGKRLRIPIERRYFSPPPPTIIYPPEVHDYNEKFTQLLQVIKHRHDPTVTTVAQGVLEWKRTQKTSVIGTPIQEFLDRFYMSRIGIRFLIGQHIALNTLPPHPDYVGIICTRANIHDICQEAIDNARYVCEEHYALFKSPNIKLVCPPNLTFPYIPGHLSHICFELLKNSLRAVVERYGVDNDDEYPPIKVVVVEGREDITIKISDEGGGIPRSAIPHIWTYLYTTMSDEGLEDTIQGSDFKAPMAGFGYGLPLSRLYARFFGGDLRLISMDGYGTDVYISLNKLSSSREPLQ
B12: Fe-S cluster assembly protein DRE2 (protein, UniProt J9VZC6 1-321)
chain: MPAPVPPAAPGHSSTPATQLVLGSMQRAPEYQAIITSLKSAASPSSLVQGEMVDRILDNATTLPPPPLTIHLVLPLPLPPNLLPAIPPSTQIFIHIPADAESQLGTLHAALASHSFTPILPTPSPSTLAYTSPSAPSLPTVTSVPSPAPSSSTSVTLGGARPLQLRRNGDKARKAALWAIDSPLIPDGGKSLLTPADRTRPECVFPAENGKPVKRRRACKDCTCGLKELEQEEDAQTSAAVKEAQKAFFLEGDDDIPENLKKATEGMEGIWPVDKRAEAKKTSSCGSCYLGDAFRCSSCPYLGLPPFKPGEQVQVSIGDDI
B13: Protein BFR2 (protein, UniProt J9VUN1 1-457)
chain: MSGPSLAQQLKQLHSNNVSVPDPESAYSNLDSHDIQRKGDEGREHYVDVGPSRLRMELGGTGGGTLTGPKYEGVKTGRMKIFDDDDEDEEENGGEEGSERYEDEDEEDEDEDEDEDDEEDDEDEDEEGESEDEDEEEQPQPRANGSKQALDPVASLRNSRLKDVEKGQAIRKQKALFESLITLRITFQKALTASNTVPATLPEDPENELASKKASILKSLSELNERLFTLRESIILPGESEEEVSLGKRKRAEGDDAQGEAYWIEAAKESLGIADRSHPQLVPILNKWSSKIQAASLQLGSKQAGGSKFLQQMKNGSGGVVEAIESGINSKREAEKTLMESEETGYRALLREVIESRSGSGPAADLTHLRREKKKKREAERGGSKGRKLRYTVHEKAQNFVVPIPLSQGWHEEQVDELFSSLFGGVGMKGATAEKSVGLDVGNADEGLAELGGLRVF

molecular target: T1, Cdc3-mCherry (C. neoformans); test: affinity purification with mass spectrometry; mCherry-tagged septin captured from C. neoformans lysate on RFP-Trap agarose, 4 h at 4°C, washed with TBS with 2 M urea pH 7.5; GeLC-MS/MS; untagged H99 as negative control; hits logFC >2 and adjusted p <0.001 (text-named hits <0.05); exponential cultures at ~25°C or shifted to 37°C for 2 h; N = 5

Row | Binder | binding
1 | B1 | binds
2 | B2 | binds
3 | B3 | binds
4 | B4 | binds
5 | B5 | binds
6 | B6 | binds
7 | B7 | binds
8 | B8 | binds
9 | B9 | binds
10 | B10 | binds
11 | B11 | binds
12 | B12 | binds
13 | B13 | binds

From article PMC11651612
